Measured values: patent US6596271B2, “Insect control method with genetically engineered biopesticides” (priority 1996, dated 2003)

Test system: neonate larvae of H. virescens
Test: Time-response of neonate larvae to NPVs with low concentrations of classical insecticides (droplet feeding, treated vials)
Assay type: in vivo, Heliothis virescens
Settings: log-probit time-response; 2000 PIBs and/or LC10-LC20 (24 h) insecticide
From the text: For example, two of the compounds studied were pyrethroids, […]. In our study we found a subadditive response when low rates of allethrin or cypermethrin were combined with wild-type AcNPV.

| SMILES | Slope ± SE |
| --- | --- |
| CNC(=O)ON=C(C)SC [Methomyl] | 0.69 ± 0.20 |
| CC1(C)C(C=C(Cl)Cl)C1C(=O)OC(C#N)c1cccc(Oc2ccccc2)c1 (centres unmarked) [Cypermethrin] | 1.49 ± 0.24 |
| Clc1ccc(C(c2ccc(Cl)cc2)C(Cl)(Cl)Cl)cc1 [DDT] | 1.45 ± 0.30 |
| CCCSP(=O)(OCC)Oc1ccc(Br)cc1Cl (centres unmarked) [Profenofos] | 0.76 ± 0.19 |
| C=CCC1=C(C)C(OC(=O)C2C(C=C(C)C)C2(C)C)CC1=O (centres unmarked) [Allethrin] | 1.46 ± 0.19 |
